The experiment concerns the target myc-tagged pig mRNA decapping enzyme 1A (DCP1A), full length (pig) (UniProt I3LHS8). The experiment can be described thus: co-IP; BHK-21 cells cotransfected with myc-tagged DCP1A (or its truncations) and GFP-tagged SVV proteins or HA-tagged autophagy receptors; lysed at 24 hpt; anti-myc magnetic beads overnight; western blotting with anti-myc, anti-HA, anti-GFP. For orientation: In western blotting, separated proteins are transferred to a membrane and probed.

By UniProt entry, the sequences of proteins in these tests, tags left out.
UniProt I3LHS8: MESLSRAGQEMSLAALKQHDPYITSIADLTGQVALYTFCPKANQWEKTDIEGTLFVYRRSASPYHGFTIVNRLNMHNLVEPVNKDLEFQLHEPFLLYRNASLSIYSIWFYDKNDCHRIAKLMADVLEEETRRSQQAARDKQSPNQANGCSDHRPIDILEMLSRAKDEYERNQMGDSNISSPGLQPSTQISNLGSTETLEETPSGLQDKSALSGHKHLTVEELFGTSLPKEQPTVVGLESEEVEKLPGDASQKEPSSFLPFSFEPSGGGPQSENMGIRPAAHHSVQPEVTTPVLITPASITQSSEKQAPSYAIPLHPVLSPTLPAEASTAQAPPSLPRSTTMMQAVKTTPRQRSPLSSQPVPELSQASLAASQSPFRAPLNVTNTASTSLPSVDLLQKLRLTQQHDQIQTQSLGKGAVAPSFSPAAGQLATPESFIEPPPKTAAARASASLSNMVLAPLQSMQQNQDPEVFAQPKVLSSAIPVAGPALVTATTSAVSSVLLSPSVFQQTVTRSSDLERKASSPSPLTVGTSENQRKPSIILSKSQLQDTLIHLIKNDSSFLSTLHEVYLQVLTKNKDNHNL
UniProt Q7YS99: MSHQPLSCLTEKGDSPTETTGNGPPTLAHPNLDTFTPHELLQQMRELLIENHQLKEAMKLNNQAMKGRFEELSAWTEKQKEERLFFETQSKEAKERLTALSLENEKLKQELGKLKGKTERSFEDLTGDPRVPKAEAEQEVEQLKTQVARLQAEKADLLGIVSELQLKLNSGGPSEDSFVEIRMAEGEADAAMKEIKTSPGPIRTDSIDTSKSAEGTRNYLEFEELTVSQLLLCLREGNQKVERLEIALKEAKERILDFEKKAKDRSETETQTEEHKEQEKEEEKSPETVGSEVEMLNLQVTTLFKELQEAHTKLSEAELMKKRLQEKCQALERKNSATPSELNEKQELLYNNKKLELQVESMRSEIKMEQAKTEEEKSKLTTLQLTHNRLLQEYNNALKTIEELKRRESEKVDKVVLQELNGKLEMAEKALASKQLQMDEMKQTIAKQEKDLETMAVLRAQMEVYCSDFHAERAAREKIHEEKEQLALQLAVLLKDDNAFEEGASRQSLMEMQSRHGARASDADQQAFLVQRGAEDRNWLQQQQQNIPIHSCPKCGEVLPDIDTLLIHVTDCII

The record followed here is publication PMC11869656.

No constants are given. Whether binding was seen depends on the method and setting. In cells and extracts the contact can be indirect. Some binding calls cover weakened binding; strength is not graded here.

For “HA-tagged OPTN (optineurin) (from UniProt Q7YS99 1-574)”, the binding result is given as “binds”.
